No constants are given. Whether binding was seen depends on the method and setting. Binding seen in cells or lysates may run through a third protein. Binding can be weak; no strength is given.
Experiments:
[1] = target: FLAG-tagged MYSM1-ΔSWIRM (human) (UniProt Q5VVJ2); test: co-IP; anti-FLAG immunoprecipitation (IgG control) from whole-cell extracts of HEK293 (Fig. 1B, EV1E) or MCF-7 (Fig. 1F) cells co-transfected with FLAG-MYSM1 (wild type or deletion mutants) and ERα; Fig. 1B: estrogen-depleted medium 48 h, then ethanol vehicle or E2 (100 nM) for 12 h; Protein A/G agarose, overnight, three rinses, immunoblot
[2] = target: FLAG-tagged MYSM1-ΔMPN (human) (UniProt Q5VVJ2); test: as above

Sequences of proteins named here, by UniProt entry; tags and fusion partners are left off. A change or cut given only in a name is not applied to a line headed by its entry.
UniProt Q5VVJ2: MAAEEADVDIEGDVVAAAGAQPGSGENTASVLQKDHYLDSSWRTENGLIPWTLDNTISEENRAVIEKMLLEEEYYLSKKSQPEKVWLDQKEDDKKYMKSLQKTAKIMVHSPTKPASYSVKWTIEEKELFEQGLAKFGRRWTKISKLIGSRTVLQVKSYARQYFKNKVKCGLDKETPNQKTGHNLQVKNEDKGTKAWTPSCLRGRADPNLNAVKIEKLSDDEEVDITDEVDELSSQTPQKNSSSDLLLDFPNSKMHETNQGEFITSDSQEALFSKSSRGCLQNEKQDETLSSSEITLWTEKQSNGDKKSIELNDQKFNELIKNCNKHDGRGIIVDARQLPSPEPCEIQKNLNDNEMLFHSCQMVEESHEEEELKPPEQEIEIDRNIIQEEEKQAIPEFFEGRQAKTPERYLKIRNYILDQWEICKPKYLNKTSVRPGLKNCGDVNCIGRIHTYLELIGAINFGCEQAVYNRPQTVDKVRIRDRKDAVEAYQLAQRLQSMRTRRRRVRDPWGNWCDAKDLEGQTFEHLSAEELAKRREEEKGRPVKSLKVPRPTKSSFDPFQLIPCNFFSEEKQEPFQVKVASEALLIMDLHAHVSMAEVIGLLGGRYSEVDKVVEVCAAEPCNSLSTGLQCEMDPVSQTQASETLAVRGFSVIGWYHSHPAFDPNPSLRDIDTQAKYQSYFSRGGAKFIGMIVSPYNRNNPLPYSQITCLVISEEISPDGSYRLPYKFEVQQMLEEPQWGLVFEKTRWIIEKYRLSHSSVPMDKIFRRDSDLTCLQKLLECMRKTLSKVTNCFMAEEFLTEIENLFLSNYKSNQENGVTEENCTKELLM
UniProt P03372: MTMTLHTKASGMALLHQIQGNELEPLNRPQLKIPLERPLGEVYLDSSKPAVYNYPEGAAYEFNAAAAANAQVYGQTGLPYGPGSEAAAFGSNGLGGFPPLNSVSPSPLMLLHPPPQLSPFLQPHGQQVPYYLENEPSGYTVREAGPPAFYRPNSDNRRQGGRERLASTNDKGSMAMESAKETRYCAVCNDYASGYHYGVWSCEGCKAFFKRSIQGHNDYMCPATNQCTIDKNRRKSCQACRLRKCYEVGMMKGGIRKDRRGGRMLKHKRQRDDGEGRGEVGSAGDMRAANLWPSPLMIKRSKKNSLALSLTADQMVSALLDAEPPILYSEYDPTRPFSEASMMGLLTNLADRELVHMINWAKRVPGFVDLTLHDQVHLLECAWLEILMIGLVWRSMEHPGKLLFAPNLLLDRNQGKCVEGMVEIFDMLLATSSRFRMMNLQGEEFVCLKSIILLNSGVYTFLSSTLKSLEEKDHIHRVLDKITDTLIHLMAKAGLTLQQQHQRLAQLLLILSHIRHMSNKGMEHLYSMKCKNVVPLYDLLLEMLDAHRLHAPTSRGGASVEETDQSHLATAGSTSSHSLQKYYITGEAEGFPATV

binding [1]: binds | binding [2]: binds
Substance: ERα (estrogen receptor alpha), ectopically expressed (from UniProt P03372 1-595)

Reference: publication PMC10883278
